Assay: Mass transfer of polyols (aerosol formers) from cellulose pad substrate in aerosol drug delivery device
Conditions: about 300° C.

| SMILES | Total transfer of aerosol from device (%) (Expt. 1, 98 mg aerosol former on substrate, heated 10 min) | Total transfer of aerosol from device (%) (Expt. 2, 124 mg aerosol former on substrate, heated 10 min) | Total transfer of aerosol from device (%) (Expt. 3, 120 mg aerosol former on substrate, heated 10 min) | Total transfer of aerosol from device (%) (Expt. 4, 50 mg aerosol former on substrate, heated 5 min) | Total transfer of aerosol from device (%) (Expt. 5, 73 mg aerosol former on substrate, heated 5 min) | Total transfer of aerosol from device (%) (Expt. 6, 78 mg aerosol former on substrate, heated 5 min) |
| --- | --- | --- | --- | --- | --- | --- |
| OCC(O)CO [Glycerin] | 47% | 36% | 34% | – | – | – |
| CC(O)CO (stereo not drawn) [Propylene Glycol (PEG), Propylene Glycol] | – | – | – | 100% | 62% | 79% |

Source: patent US8251060B2, “Device and method for delivering an aerosol drug” (priority 2006, dated 2012)
